Measurements reported in PubChem BioAssay AID1259308 (NCATS, 2017).
Aim: 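Genes whose loss raises luciferase production in HEK293 cells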 (primary screen). Cells: human HEK293 embryonic kidney cells stably expressing firefly luciferase (HEK-CMV-Luc2-Hygro). Reagent: single siRNA against human genes, 0.8 pmol siRNA per well. Timing: 72 h. Read-out: 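Reporter luminescence and viable-cell signal on separate replicate plates, given as percent of non-targeting control and median/MAD z-scores, plus per-cell luciferase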. Reading the numbers: total luciferase, z-score and total luciferase, % of control: higher = more reporter protein produced; luciferase per cell, z-score: higher = more reporter output per viable cell; viable cells, % of control: higher = more viable cells. Call rule: 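Active when the median/MAD z-score for overall luciferase is greater than 3; a gene was taken forward for validation with new siRNAs if at least two of its three siRNAs passed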. Meaning of the calls: active = raised luciferase; inactive = no rise.
Here is one part, drawn at random, of about 59,000 deposited reagents. About 1,510 of them (2.6%) were called active. 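Calls use total luciferase alone and ignore viability, so some active siRNAs may act by altering cell number.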 The numbers tell different reagents against one gene apart. No sequences are given here.

target gene	siRNA no.	total luciferase, z-score	total luciferase, % of control	luciferase per cell, z-score	viable cells, % of control	activity call
SNX24	1	0.335	88.6	0.0351	98	inactive
SNX24	2	1.13	104	1.28	83.3	inactive
SNX24	3	-0.492	72.1	-1.14	109	inactive
RASSF8	1	2.47	131	1.56	97.1	inactive
RASSF8	2	-0.524	71.5	-0.594	93.4	inactive
RASSF8	3	-1.09	60.2	-0.707	81	inactive
FGF6	1	1.16	105	0.656	98.7	inactive
FGF6	2	0.548	92.8	0.506	90.7	inactive
FGF6	3	-0.2	77.9	-0.229	92.5	inactive
CFAP157	1	-0.0651	80.6	-0.287	97.1	inactive
CFAP157	2	-0.922	63.5	-0.687	85.1	inactive
CFAP157	3	-1.51	51.8	-1.39	83.5	inactive
DNM1	1	0.973	101	1.32	80	inactive
DNM1	2	2.08	123	1.54	91.6	inactive
DNM1	3	0.776	97.3	0.831	87.4	inactive
IGDCC4	1	-2.17	38.8	-1.46	63.6	inactive
IGDCC4	2	-0.686	68.2	-0.788	93.9	inactive
IGDCC4	3	-2.76	27	-2.95	65.7	inactive
LMAN1L	1	-0.00566	81.8	-0.216	96.7	inactive
LMAN1L	2	-0.0478	80.9	-0.343	99	inactive
LMAN1L	3	-0.931	63.4	-0.644	83.9	inactive
CENPE	1	-0.721	67.5	-0.277	81.2	inactive
CENPE	2	-0.00336	81.8	-0.4	102	inactive
CENPE	3	-0.956	62.9	-0.466	79.4	inactive
ARHGEF15	1	-0.482	72.3	-0.479	91.6	inactive
ARHGEF15	2	-0.46	72.7	-0.701	97.7	inactive
ARHGEF15	3	2.63	134	1.89	91.1	inactive
PDYN	1	3.43	150	2.34	90.5	active
PDYN	2	0.333	88.5	0.221	93.3	inactive
PDYN	3	-0.425	73.4	-1.42	119	inactive
GTF2H3	1	-0.0434	81	-0.227	96.1	inactive
GTF2H3	2	0.173	85.3	0.546	82.6	inactive
GTF2H3	3	0.0849	83.6	-0.142	96.9	inactive
KRTAP9-3	1	-0.592	70.1	-0.872	98.6	inactive
KRTAP9-3	2	2.56	133	2.48	77.3	inactive
KRTAP9-3	3	1.34	109	0.696	101	inactive
NDUFA5	1	-0.509	71.8	-1.12	108	inactive
NDUFA5	2	0.617	94.2	0.158	101	inactive
NDUFA5	3	-1.22	57.5	-0.893	81.4	inactive
IL38	1	0.285	87.6	-0.395	109	inactive
IL38	2	0.323	88.3	1.18	72.4	inactive
IL38	3	-0.574	70.5	-0.919	100	inactive
FIG4	1	-1.95	43.2	-2.69	97.9	inactive
FIG4	2	-1.05	61	1.55	45.3	inactive
FIG4	3	-0.113	79.6	-0.284	95.9	inactive
OR5M8	1	-0.096	80	0.108	86.9	inactive
OR5M8	2	0.0834	83.5	0.283	86.6	inactive
OR5M8	3	2.21	126	1.45	96	inactive
TMCO1	1	0.507	92	0.0373	102	inactive
TMCO1	2	0.156	85	-0.208	100	inactive
TMCO1	3	-2.34	35.4	-4.1	116	inactive
ASCL2	1	-0.4	73.9	-0.218	87.5	inactive
ASCL2	2	1.11	104	0.138	112	inactive
ASCL2	3	-0.00933	81.7	0.732	75.3	inactive
OR1S2	1	0.556	92.9	-0.146	108	inactive
OR1S2	2	0.82	98.2	-0.0466	111	inactive
OR1S2	3	0.169	85.2	-0.324	104	inactive

Part of the list above, showing only “total luciferase, z-score”.
IL38 #1 = 0.285
IL38 #2 = 0.323
IL38 #3 = -0.574
FIG4 #1 = -1.95
FIG4 #2 = -1.05
FIG4 #3 = -0.113
OR5M8 #1 = -0.096
OR5M8 #2 = 0.0834
OR5M8 #3 = 2.21
